# From patent publication US9696316B2, “Conformationally dynamic peptides” (SYSTEM OF SYSTEMS ANALYTICS, INC., priority 2009, dated 2017)
# Assay: Solvent (TFE)-induced conformational change, pyrene excimer:monomer fluorescence
# Assay type: physicochemical
substance,measurement,setting,value
"KLVFFAEDVGSNKHAIIELMK (KLVFFAEDVGSNKHAIIELMK) [Peptide 22, Salt bridge at G29H and G33E]","maximal signal response, excimer:monomer fluorescence ratio (signal gain from 80 to 20% TFE)","2 μM di-pyrene peptide, 10 mM Tris pH 7.0, 30 min",approximately 100 ratio units
same,maximal signal response relative to the reference peptide (SEQ ID NO:1),signal gain from 80 to 20% TFE in buffer,4 times
